# No constants are given. Whether binding was seen depends on the method and setting. Binding seen in cells or lysates may run through a third protein. Here binding means that the protein was enriched with, or labelled near, the bait; the list need not be complete.
# Chains of the proteins cited; added tags and fusions are not shown.
# UniProt Q9Y6M1: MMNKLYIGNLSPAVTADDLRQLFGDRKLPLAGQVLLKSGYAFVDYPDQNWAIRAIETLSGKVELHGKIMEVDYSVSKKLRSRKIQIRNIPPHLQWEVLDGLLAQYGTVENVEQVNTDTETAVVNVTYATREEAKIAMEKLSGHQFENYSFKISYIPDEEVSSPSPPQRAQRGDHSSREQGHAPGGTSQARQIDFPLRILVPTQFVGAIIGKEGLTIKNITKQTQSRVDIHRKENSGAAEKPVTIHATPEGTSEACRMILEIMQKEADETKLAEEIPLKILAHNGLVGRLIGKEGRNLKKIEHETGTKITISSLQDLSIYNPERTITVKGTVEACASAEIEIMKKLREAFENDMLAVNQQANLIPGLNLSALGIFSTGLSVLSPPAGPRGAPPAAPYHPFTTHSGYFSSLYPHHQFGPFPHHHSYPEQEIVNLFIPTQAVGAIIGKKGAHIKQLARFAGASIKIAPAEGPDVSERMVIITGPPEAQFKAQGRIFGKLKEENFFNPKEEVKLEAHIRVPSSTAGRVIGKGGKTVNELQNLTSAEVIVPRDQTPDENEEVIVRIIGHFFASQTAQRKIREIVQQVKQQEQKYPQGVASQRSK
# UniProt P60842: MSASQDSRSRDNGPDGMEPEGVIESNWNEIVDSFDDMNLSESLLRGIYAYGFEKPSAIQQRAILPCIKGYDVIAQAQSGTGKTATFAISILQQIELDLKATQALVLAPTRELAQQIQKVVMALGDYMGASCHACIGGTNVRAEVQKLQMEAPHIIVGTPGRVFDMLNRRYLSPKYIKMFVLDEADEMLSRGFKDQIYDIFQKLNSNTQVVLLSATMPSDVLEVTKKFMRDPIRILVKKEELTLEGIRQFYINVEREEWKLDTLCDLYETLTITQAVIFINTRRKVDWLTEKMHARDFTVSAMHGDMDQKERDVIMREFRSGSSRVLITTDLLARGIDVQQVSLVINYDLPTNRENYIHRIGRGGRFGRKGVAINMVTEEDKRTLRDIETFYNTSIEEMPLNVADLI
# UniProt P38919: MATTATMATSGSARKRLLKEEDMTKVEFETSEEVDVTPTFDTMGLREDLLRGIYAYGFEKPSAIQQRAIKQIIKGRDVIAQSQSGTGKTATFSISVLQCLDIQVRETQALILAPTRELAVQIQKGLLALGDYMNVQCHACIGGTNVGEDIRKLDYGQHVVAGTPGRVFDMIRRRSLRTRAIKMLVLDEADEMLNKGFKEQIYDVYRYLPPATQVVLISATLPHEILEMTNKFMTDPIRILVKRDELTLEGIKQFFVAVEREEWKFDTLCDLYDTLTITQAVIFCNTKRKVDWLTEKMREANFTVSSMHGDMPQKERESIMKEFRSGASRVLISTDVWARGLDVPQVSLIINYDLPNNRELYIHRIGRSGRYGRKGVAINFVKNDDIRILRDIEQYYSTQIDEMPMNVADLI
# Molecular target: IGF2BP2 (human (endogenous in MDA-MB-231 and HCC-1806)) (UniProt Q9Y6M1)
# Assay: affinity purification with mass spectrometry; IP-MS of IGF2BP2 from human breast cancer cell lysates, three independent replicates; Protein A/G magnetic beads
row,binding,Substance
1,binds,EIF4A1 (from UniProt P60842 1-406)
2,binds,EIF4A3 (from UniProt P38919 1-411)

# From paper PMC10767445
